# Laboratory results: PubChem BioAssay AID624291 (National Center for Advancing Translational Sciences (NCATS), 2012)
# About 220 (0.063%) of roughly 350,000 compounds were called active. The shares of active, inactive and inconclusive entries below differ from those in the screen. Calls come from the whole dose curve; as a rule, active = well fitted activation curve with a large enough effect; inconclusive = small, poorly fitted or top-dose-only effect; inactive = no such curve, though single readings can be large or run the other way. Potencies beside an inconclusive call are fits to weak or partial responses and may not hold up.
# Test: qHTS for Activators of Integrin-Mediated Alleviation for Muscular Dystrophy; note: nearly all actives have a fitted effect of over 60% in size;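 for activation: 100% = response of the positive control SU9516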
# Details: alpha7betagal myoblasts, beta-gal FDG fluorescence, 48 h; activation: at 38.3 µM (top of the series)
# Outline: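 alpha7betagal+/- myoblasts (passage 13, 250/well) treated 48 h at 37C with compounds at 1:260 dilution of DMSO stock. Lysed, then beta-galactosidase activity read as FDG fluorescence (ex 480/em 540) after 30 min, with pre-read for autofluorescence.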
# Potency is the fitted concentration of half-maximal effect.
SMILES,Potency,activation
CCCCC(=O)NNC(=S)NCc1ccccc1,inactive,
COc1ccccc1OC(C)C(=O)Nc1ccc(S(=O)(=O)N2CCN(C)CC2)cc1 (stereo not drawn),inactive,
S=C(Nc1cc(Cl)cc(Cl)c1)NC1CCN(Cc2ccccc2)CC1,inactive,
COCCNC(=O)/C(C#N)=C/c1ccc(OCc2ccc(F)cc2)cc1,"inconclusive: 5.01 µM [activator, single point]",
O=C(O)c1ccc2[nH]c3c(c2c1)CSCC3,inactive,
Cc1ccc(C#CC[N+]2(CC#Cc3ccc(C)cc3)CCCCC2)cc1,,inconclusive: -57.3% [activator]
CCCc1nnc(NC(=O)c2nc(S(=O)(=O)Cc3ccc(C)cc3)ncc2Cl)s1,inactive,
COc1ccccc1NC(=O)N(Cc1ccco1)Cc1cc2c(C)ccc(C)c2[nH]c1=O,"inconclusive: 2.51 µM [activator, partial curve, poor fit]",
OC(CNCc1ccc(Cl)cc1)(c1ccccc1)c1ccc(F)cc1 (stereo not drawn),inactive,
O=[N+]([O-])c1ccc(NN=Cc2cccc3ccccc23)cc1,"inconclusive: 3.55 µM [activator, partial curve, poor fit]",
COc1cccc(NC(=O)COC(=O)/C=C/c2ccco2)c1,"inconclusive: 5.01 µM [activator, single point]",
CCN1C/C(=C/c2ccc(N3CCOCC3)cc2)C(=O)/C(=C/c2ccc(N3CCOCC3)cc2)C1,inactive,
O=C(CSc1nnc(NC(=O)c2c(F)cccc2F)s1)Nc1ccc(F)cc1,"inconclusive: 28.2 µM [activator, single point]",
O=C(Nc1ccc(F)c(F)c1)C1CCCN(S(=O)(=O)c2cccc3nonc23)C1 (stereo not drawn),"inconclusive: 28.2 µM [activator, single point]",
CC1(C)Cc2c(ccc3ccccc23)C(=O)N1,"inconclusive: 3.55 µM [activator, full curve]",
O=[N+]([O-])CC1(n2nc3ccccc3n2)CCCCC1,inactive,
CC(=O)Nc1c(O)nc(SCc2ccccc2C#N)[nH]c1=O,inactive,
CSc1ccccc1OCc1cc(C(=O)N2CCCC2c2nonc2C)no1 (stereo not drawn),inactive,
NC(=O)c1ccccc1NC(=S)NC(=O)CCc1ccccc1,inactive,
Cn1c(=O)c2c(nc(SCCN3CCOCC3)n2Cc2ccccc2)n(C)c1=O,"inconclusive: 4.47 µM [activator, partial curve, poor fit]",
N=c1c(C(=O)NCCN2CCOCC2)cc2c(=O)n3ccccc3nc2n1CCc1ccccc1,"inconclusive: 11.2 µM [activator, partial curve, poor fit]",
COc1ccc(-n2nnnc2SCC(=O)Nc2ccccc2F)cc1,"inconclusive: 11.2 µM [activator, single point]",
COc1cc2cc(C(=O)O)n(C)c2c(OC)c1OC,inactive,
O=C(Nc1ccccc1)Nc1nnc(COc2ccccc2F)s1,"inconclusive: 5.01 µM [activator, single point]",
CCOc1ccc(S(=O)(=O)N=C(c2ccccc2)N2CCOCC2)cc1,"inconclusive: 5.01 µM [activator, single point]",

# A second format for part of the listing above.
SMILES | Potency | activation
S=C(Nc1cc(Cl)cc(Cl)c1)NC1CCN(Cc2ccccc2)CC1 | inactive | 
COCCNC(=O)/C(C#N)=C/c1ccc(OCc2ccc(F)cc2)cc1 | inconclusive: 5.01 µM [activator, single point] | 
O=C(O)c1ccc2[nH]c3c(c2c1)CSCC3 | inactive | 
Cc1ccc(C#CC[N+]2(CC#Cc3ccc(C)cc3)CCCCC2)cc1 |  | inconclusive: -57.3% [activator]
CCCc1nnc(NC(=O)c2nc(S(=O)(=O)Cc3ccc(C)cc3)ncc2Cl)s1 | inactive | 
COc1ccccc1NC(=O)N(Cc1ccco1)Cc1cc2c(C)ccc(C)c2[nH]c1=O | inconclusive: 2.51 µM [activator, partial curve, poor fit] | 
OC(CNCc1ccc(Cl)cc1)(c1ccccc1)c1ccc(F)cc1 (stereo not drawn) | inactive | 
O=[N+]([O-])c1ccc(NN=Cc2cccc3ccccc23)cc1 | inconclusive: 3.55 µM [activator, partial curve, poor fit] | 
COc1cccc(NC(=O)COC(=O)/C=C/c2ccco2)c1 | inconclusive: 5.01 µM [activator, single point] | 
CCN1C/C(=C/c2ccc(N3CCOCC3)cc2)C(=O)/C(=C/c2ccc(N3CCOCC3)cc2)C1 | inactive | 
O=C(CSc1nnc(NC(=O)c2c(F)cccc2F)s1)Nc1ccc(F)cc1 | inconclusive: 28.2 µM [activator, single point] | 
O=C(Nc1ccc(F)c(F)c1)C1CCCN(S(=O)(=O)c2cccc3nonc23)C1 (stereo not drawn) | inconclusive: 28.2 µM [activator, single point] | 
CC1(C)Cc2c(ccc3ccccc23)C(=O)N1 | inconclusive: 3.55 µM [activator, full curve] | 
O=[N+]([O-])CC1(n2nc3ccccc3n2)CCCCC1 | inactive | 
CC(=O)Nc1c(O)nc(SCc2ccccc2C#N)[nH]c1=O | inactive | 
CSc1ccccc1OCc1cc(C(=O)N2CCCC2c2nonc2C)no1 (stereo not drawn) | inactive | 
NC(=O)c1ccccc1NC(=S)NC(=O)CCc1ccccc1 | inactive | 
Cn1c(=O)c2c(nc(SCCN3CCOCC3)n2Cc2ccccc2)n(C)c1=O | inconclusive: 4.47 µM [activator, partial curve, poor fit] | 
N=c1c(C(=O)NCCN2CCOCC2)cc2c(=O)n3ccccc3nc2n1CCc1ccccc1 | inconclusive: 11.2 µM [activator, partial curve, poor fit] | 
COc1ccc(-n2nnnc2SCC(=O)Nc2ccccc2F)cc1 | inconclusive: 11.2 µM [activator, single point] | 
COc1cc2cc(C(=O)O)n(C)c2c(OC)c1OC | inactive | 
O=C(Nc1ccccc1)Nc1nnc(COc2ccccc2F)s1 | inconclusive: 5.01 µM [activator, single point] | 

# (next part)

SMILES,Potency,activation
Cc1ccc(NNC(=S)Nc2ccc(C(C)C)cc2)c(C)c1,inactive,
O=C(COC(=O)Cc1ccccc1F)Nc1ccc(F)cc1F,"inconclusive: 12.6 µM [activator, single point]",
CCOc1ncccc1C(=O)Nc1ccc(Cl)c(S(=O)(=O)N2CCCC2)c1,inactive,
CCOC(=O)N1CCN(C(=O)c2ccc(CNS(=O)(=O)c3ccc(NC(C)=O)cc3)cc2)CC1,"inconclusive: 5.01 µM [activator, single point]",
C[n+]1ccc(C(=O)Nc2ccccc2Cl)cc1,"inconclusive: 28.2 µM [activator, single point]",
COc1cc(SC#N)ccc1N=Cc1c(C)[nH]n(-c2ccc(Cl)cc2)c1=O,inactive,
Cc1ccc(NC(=O)Nc2ccccc2)cc1[N+](=O)[O-],"inconclusive: 28.2 µM [activator, single point]",
O=C(NC1CCCCC1)c1cc2c(cc1Cl)N1CCCCCC1=NS2(=O)=O,"inconclusive: 8.91 µM [activator, partial curve, poor fit]",
N/C(Cc1ccc([N+](=O)[O-])cc1)=N\OC(=O)C1CCCCC1,"inconclusive: 3.16 µM [activator, single point]",
N#C/C(=C\c1ccc(N2CCOCC2)o1)c1ccccc1,inactive,
O=C(Nn1c(O)c(C=C2N=c3ccccc3=N2)sc1=S)c1ccccc1Cl,,inconclusive: -52.1% [activator]
O=C(c1ccc(NC(=S)Nc2ccc(Cl)c(Cl)c2)cc1)N1CCCC1,inactive,
Cc1cc(NC(=O)C2COc3ccccc3O2)no1 (stereo not drawn),inactive,
O=P(c1ccccc1)(c1ccccc1)C(O)c1ccccn1 (stereo not drawn),"inconclusive: 2.24 µM [activator, full curve, poor fit]",
COc1cc(C(c2c(O)nc(SC)[nH]c2=O)c2c(O)nc(SC)[nH]c2=O)cc(OC)c1OC,"inconclusive: 3.98 µM [activator, single point]",
Cc1c(CC(=O)NCC(=O)O)c(=O)oc2cc3c(cc12)CCC(C)(C)O3,inactive,
O=C(NCCO)c1cc2c([nH]c3ccccc32)c(-c2ccccc2)n1,inactive,
CCCNC(=O)c1nn2cc(Br)cnc2c1Cl,"inconclusive: 10 µM [activator, partial curve, poor fit]",
Nc1sc(-c2ccccc2)c(Cc2ccccc2)c1C(=O)O,"inconclusive: 3.16 µM [activator, partial curve, poor fit]",
Cc1nc(Nc2ccccc2)sc1C(=O)c1ccccc1,inactive,
O=C(O)/C=C\c1ccccc1Oc1cccc(Cl)c1,"inconclusive: 28.2 µM [activator, single point]",
Cc1cccn2cc(-c3ccc(NC(=O)Cc4ccccc4)cc3)nc12,inactive,
CC(=O)c1cccc(N(C(=O)CNC(=O)c2ccco2)C(C(=O)NC2CCCC2)c2ccco2)c1 (stereo not drawn),"inconclusive: 5.01 µM [activator, single point]",
S=C(Nc1ccccc1Cl)N1CCCC1,"inconclusive: 17.8 µM [activator, single point]",
CCOc1ccc(NS(=O)(=O)c2ccc(C(=O)NCC(c3ccco3)N(C)C)cc2)cc1 (stereo not drawn),inactive,

SMILES,Potency,activation
O=C(CCSc1ccccc1)NC(=O)COC(=O)c1ccc(OC(F)F)cc1,"inconclusive: 3.16 µM [activator, single point]",
CCOC(=O)N1CCN(C(=O)CNC(=O)c2ccc(Cl)cc2)CC1,"inconclusive: 2.82 µM [activator, full curve, poor fit]",
COc1ccc(C(NC(=O)CC(C)C)c2c(O)ccc3ccccc23)cc1 (stereo not drawn),inactive,
Cc1ccc(/C=C2\OC(=O)c3ccccc32)cc1,"inconclusive: 5.01 µM [activator, single point]",
CCc1nn(CC(=O)NCCN2CCOCC2)c(=O)c2cc3c(OC)cccc3n12,"inconclusive: 11.2 µM [activator, single point]",
COc1ccc(CCNC(=O)CCn2c(=O)c3cccn3c3ccc(F)cc32)c(OC)c1OC,"inconclusive: 2.51 µM [activator, single point]",
CC(=O)Nc1nc(C)c(-c2nc3ccc([N+](=O)[O-])cc3[nH]2)s1,"inconclusive: 1.78 µM [activator, partial curve, poor fit]",
O=C(c1cc2ccccc2o1)N(Cc1ccco1)Cc1cccs1,"inconclusive: 10 µM [activator, single point]",
COC(=O)CC(NC(=O)Nc1ccc(C)cc1)c1cccc([N+](=O)[O-])c1 (stereo not drawn),"inconclusive: 1.78 µM [activator, partial curve, poor fit]",
CN(C)c1ccc(/C=C/c2ccc3c4ccccc4ccc3[n+]2-c2ccccc2)cc1,inactive,
COc1cc(SC)ccc1C(=O)N1CCN(Cc2ccccc2)CC1,"inconclusive: 10 µM [activator, single point]",
O=C1CSC2(CCCCC2)N1CCO,"inconclusive: 5.01 µM [activator, full curve, poor fit]",
CCn1c(=O)c(C(=O)NNS(=O)(=O)c2ccc(Br)cc2)c(O)c2ccccc21,"inconclusive: 25.1 µM [activator, single point]",
O=C(NCc1ccccc1F)C1CCCN1S(=O)(=O)c1ccc(Cl)cc1 (stereo not drawn),inactive,
CCCc1nc2ccccc2c(C(=O)OCC(=O)N2CCc3ccccc32)c1CC,inactive,
N#C/C(=C/c1ccc(OC(=O)c2ccc(Br)s2)cc1)c1nc2ccccc2[nH]1,"inconclusive: 28.2 µM [activator, single point]",
O=C(CSc1nnnn1-c1cccc(F)c1)NC1CCCCC1,"inconclusive: 12.6 µM [activator, single point]",
CCN(CC)C(=O)/C(=C/c1cccc([N+](=O)[O-])c1)NC(=O)c1ccco1,"inconclusive: 5.01 µM [activator, single point]",
Cc1ccc(S(=O)(=O)N[C@@H](Cc2ccccc2)C(=O)N2CCC[C@@H]2C(=O)O)cc1,"inconclusive: 1.78 µM [activator, full curve, poor fit]",
COc1ccc(NC(=O)c2cc3ccccc3cc2OC)cc1,"inconclusive: 0.501 µM [activator, full curve, poor fit]",
CC1CCC2C(=O)N(c3ccc(S(=O)(=O)c4ccccc4)cc3)C(=O)C2C1 (stereo not drawn),inactive,
O=C(N/N=C/c1ccccc1O)NC12CC3CC(CC(C3)C1)C2,inactive,
CC(=O)Nc1ccc(N2C(=O)CSC2c2ccccc2)cc1 (stereo not drawn),"inconclusive: 2.24 µM [activator, single point]",
